Data source: PubChem BioAssay AID504786 (Drosophila RNAi Screening Center, 2011)
The screen tested about 21,000 reagents; shown is a random part of those with a known target gene and a result. 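Primary screen; positive scores mean lost reporter signal, so the sign may be inverted from the usual convention.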 Names joined by + are all predicted targets of the reagent. Reagent sequences are not shown.

- Assay: 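Knock-downs reducing HIF reporter induction by the iron chelator DFO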 (primary screen)
- System: Drosophila S2 cells with a stable HIF luciferase reporter
- Knock-down reagent: long dsRNA against Drosophila genes, about 0.2 µg dsRNA per well of a 384-well plate
- Timing: three days of knock-down, then 20 h of DFO before reading
- Challenge: desferrioxamine (DFO) at 100 µM, an iron chelator that mimics hypoxia, for 20 h
- Read-out: 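Firefly luciferase driven by the mouse ldh-a hypoxia-response element, measured after 20 h of 100 µM DFO; z-scores per plate, higher means more signal lost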
- Reading the numbers: z-score: higher = stronger loss of HIF reporter signal

target | DRSC id | z-score, replicate 1 | z-score, replicate 2 | z-score, replicate 3 | z-score, replicate 4
Mpcp2 | DRSC11226 | -0.1 | -0.2 | – | –
CG7135 | DRSC20026 | -0.3 | 0.4 | – | –
Ndg (Nidogen) | DRSC06223 | -0.3 | -0.2 | – | –
PGRP-SC2 (Peptidoglycan recognition protein SC2) | DRSC06481 | -0.2 | -0.4 | – | –
CG7742 | DRSC03066 | -0.4 | -0.7 | – | –
CG12325 | DRSC06130 | 0 | 0.8 | – | –
CG33191 + Pif1B | DRSC12706 | -0.3 | 0.1 | – | –
Nepl11 (Neprilysin-like 11) | DRSC12333 | -0.3 | -0.3 | 0.4 | -0.3
RpL24-like (Ribosomal protein L24-like) | DRSC16111 | 0.5 | 2.9 | – | –
Or33c (Odorant receptor 33c) | DRSC03388 | -0.1 | -0.1 | – | –
Dys (Dystrophin) | DRSC13360 | -0.4 | 0.2 | – | –
Dys (Dystrophin) | DRSC13364 | -0.5 | -0.3 | – | –
Dys (Dystrophin) | DRSC15260 | -0.7 | -0.4 | – | –
Dys (Dystrophin) | DRSC16218 | -0.5 | -0.1 | – | –
Dys (Dystrophin) | DRSC16219 | -0.4 | -0.6 | – | –
Dys (Dystrophin) | DRSC16220 | -0.1 | -0.5 | – | –
Dys (Dystrophin) | DRSC16935 | -0.3 | -0.2 | – | –
RpS5a (Ribosomal protein S5a) | DRSC20282 | 7 | 4.7 | – | –
CG3919 | DRSC10389 | -0.1 | -0.2 | – | –
Sec61beta (Sec61 beta subunit) | DRSC07548 | -0.3 | -0.1 | 0.4 | 0
htl (heartless) | DRSC16968 | -0.2 | -0.1 | – | –
spo (spook) | DRSC11127 | -0.4 | 0 | – | –
CG5916 | DRSC15917 | -0.2 | -0.1 | – | –
Sr-CII (Scavenger receptor class C, type II) | DRSC07557 | -0.3 | 0 | – | –
jumu (jumeau) | DRSC16651 | 0.7 | 0.8 | – | –
spd-2 (spindle defective 2) | DRSC09682 | -0.2 | -0.2 | – | –
Zip102B (Zinc/iron regulated transporter-related protein 102B) | DRSC17155 | -0.3 | -0.4 | – | –
CG31659 | DRSC00760 | -0.1 | -0.5 | – | –
CG16799 | DRSC06626 | -0.4 | -0.1 | – | –
cpb (capping protein beta) | DRSC00809 | 0.2 | 0.1 | – | –
CG34032 (retired record) | DRSC09225 | 0.2 | -0.2 | – | –
mRpL23 (mitochondrial ribosomal protein L23) | DRSC08307 | 1 | 0.9 | – | –
Rsod (Related to Sod) | DRSC15424 | 0.4 | 1.4 | – | –
ATPsynO (ATP synthase, oligomycin sensitivity conferring protein) | DRSC16780 | 0.7 | 0.6 | – | –
CG8176 | DRSC16394 | -0.4 | -0.9 | – | –
CG5535 | DRSC10514 | -0.2 | -0.5 | – | –
CG30457 | DRSC06661 | -0.2 | -0.4 | – | –
CG2124 | DRSC18208 | -0.3 | -0.2 | – | –
Snx3 (Sorting nexin 3) | DRSC16027 | -0.1 | 0.2 | – | –
Est-Q (Esterase Q) | DRSC11835 | -0.3 | -0.3 | – | –

Next part; the last 6 above are carried over.
target | DRSC id | z-score, replicate 1 | z-score, replicate 2 | z-score, replicate 3 | z-score, replicate 4
CG8176 | DRSC16394 | -0.4 | -0.9 | – | –
CG5535 | DRSC10514 | -0.2 | -0.5 | – | –
CG30457 | DRSC06661 | -0.2 | -0.4 | – | –
CG2124 | DRSC18208 | -0.3 | -0.2 | – | –
Snx3 (Sorting nexin 3) | DRSC16027 | -0.1 | 0.2 | – | –
Est-Q (Esterase Q) | DRSC11835 | -0.3 | -0.3 | – | –
CG31823 | DRSC01887 | -0.1 | 0.2 | – | –
CG4666 | DRSC18379 | -0.3 | -0.5 | – | –
mIF2 (mitochondrial translation initiation factor 2) | DRSC14510 | -0.2 | -0.3 | – | –
CG18596 | DRSC15355 | -0.3 | -0.3 | – | –
BCAS2 | DRSC15693 | -0.3 | 0.3 | – | –
CDK2AP1 (CDK2-associated protein 1) | DRSC19800 | 0.1 | 0 | – | –
CG7974 | DRSC08607 | -0.2 | 0.1 | – | –
Osi19 (Osiris 19) | DRSC12569 | -0.3 | 0.8 | – | –
CG31125 | DRSC13684 | -0.3 | -0.3 | – | –
CG31288 | DRSC14667 | -0.4 | -0.5 | – | –
RhoGEF2 (Rho guanine nucleotide exchange factor 2) | DRSC07531 | -0.3 | -0.3 | – | –
SkpB (SKP1-related B) | DRSC07683 | -0.5 | 0.1 | – | –
pre-mod(mdg4)-W + pre-mod(mdg4)-Y + mod(mdg4) + 3 more | DRSC16328 | -0.4 | 0.1 | – | –
CG5968 | DRSC02916 | 1.5 | 0.5 | – | –
RunxA (Runt related A) | DRSC20400 | 0 | 0.1 | – | –
RunxA (Runt related A) | DRSC20498 | -0.4 | -0.6 | – | –
RunxA (Runt related A) | DRSC20524 | -0.4 | -0.3 | -0.7 | -0.2
CG32195 | DRSC09533 | -0.3 | -0.2 | – | –
Shark (SH2 ankyrin repeat kinase) | DRSC07680 | -0.2 | -0.2 | – | –
CG33270 | DRSC10584 | -0.2 | -0.5 | – | –
COX6CL (Cytochrome c oxidase subunit 6C-like) | DRSC00895 | 0.7 | 0.4 | – | –
CG43693 | DRSC09086 | 0.2 | -0.3 | – | –
CG43693 | DRSC10625 | -0.2 | -0.3 | – | –
GABPI (beta4GalNAcTB pilot) | DRSC00494 | -0.2 | -0.3 | – | –
PH4alphaNE2 (prolyl-4-hydroxylase-alpha NE2) | DRSC16544 | -0.3 | -0.2 | – | –
l(3)76BDm (lethal (3) 76BDm) | DRSC11047 | -0.4 | -0.5 | – | –
Rab14 | DRSC03403 | -0.2 | 0 | – | –
bol (boule) | DRSC08964 | -0.3 | -0.2 | – | –
bol (boule) | DRSC10444 | -0.1 | 0.5 | – | –
bol (boule) | DRSC11329 | 0.2 | 0.3 | – | –
CG7386 | DRSC10832 | -0.4 | 0.4 | – | –
CG3704 | DRSC18174 | 0.1 | -0.6 | – | –
CG3704 | DRSC18645 | -0.3 | -0.6 | – | –
CG17242 | DRSC00493 | -0.4 | -0.1 | – | –
Sobp (Sine oculis-binding protein) | DRSC07312 | -0.4 | -0.8 | – | –
FRG1 (FSHD region gene 1) | DRSC10648 | -0.3 | -0.1 | – | –
sinu (sinuous) | DRSC09752 | -0.6 | -0.4 | – | –
CG30378 | DRSC05071 | -0.2 | -0.1 | – | –
CycK (Cyclin K) | DRSC03714 | 1.6 | 0.9 | – | –
CG8944 | DRSC20128 | -0.3 | -0.5 | 0 | -0.3
CG10919 | DRSC14283 | -0.2 | -0.5 | – | –
CG15483 | DRSC02493 | -0.2 | -0.3 | – | –
Myo28B1 (Myosin 28B1) | DRSC03375 | -0.1 | -0.2 | – | –
